Results are given in words; binding and its absence hold for the method and conditions named. Some entries that bind do so weakly or less than the wild type.
Target: T1, α4β1 integrin expressed on Jurkat cells (human, UniProt P13612 34-1032; P05556 21-798)
T1 construct: whole, on cells; Cells labeled with a fluorescent dye (Cyto 82); also called receptor recognizing the CS1 peptide
Test: cell adhesion of labeled Jurkat cells on microarray

Chains of the proteins cited; added tags and fusions are not shown. Lines headed by an entry give the natural chain unless they say otherwise; changes in a name come on top.
UniProt P13612: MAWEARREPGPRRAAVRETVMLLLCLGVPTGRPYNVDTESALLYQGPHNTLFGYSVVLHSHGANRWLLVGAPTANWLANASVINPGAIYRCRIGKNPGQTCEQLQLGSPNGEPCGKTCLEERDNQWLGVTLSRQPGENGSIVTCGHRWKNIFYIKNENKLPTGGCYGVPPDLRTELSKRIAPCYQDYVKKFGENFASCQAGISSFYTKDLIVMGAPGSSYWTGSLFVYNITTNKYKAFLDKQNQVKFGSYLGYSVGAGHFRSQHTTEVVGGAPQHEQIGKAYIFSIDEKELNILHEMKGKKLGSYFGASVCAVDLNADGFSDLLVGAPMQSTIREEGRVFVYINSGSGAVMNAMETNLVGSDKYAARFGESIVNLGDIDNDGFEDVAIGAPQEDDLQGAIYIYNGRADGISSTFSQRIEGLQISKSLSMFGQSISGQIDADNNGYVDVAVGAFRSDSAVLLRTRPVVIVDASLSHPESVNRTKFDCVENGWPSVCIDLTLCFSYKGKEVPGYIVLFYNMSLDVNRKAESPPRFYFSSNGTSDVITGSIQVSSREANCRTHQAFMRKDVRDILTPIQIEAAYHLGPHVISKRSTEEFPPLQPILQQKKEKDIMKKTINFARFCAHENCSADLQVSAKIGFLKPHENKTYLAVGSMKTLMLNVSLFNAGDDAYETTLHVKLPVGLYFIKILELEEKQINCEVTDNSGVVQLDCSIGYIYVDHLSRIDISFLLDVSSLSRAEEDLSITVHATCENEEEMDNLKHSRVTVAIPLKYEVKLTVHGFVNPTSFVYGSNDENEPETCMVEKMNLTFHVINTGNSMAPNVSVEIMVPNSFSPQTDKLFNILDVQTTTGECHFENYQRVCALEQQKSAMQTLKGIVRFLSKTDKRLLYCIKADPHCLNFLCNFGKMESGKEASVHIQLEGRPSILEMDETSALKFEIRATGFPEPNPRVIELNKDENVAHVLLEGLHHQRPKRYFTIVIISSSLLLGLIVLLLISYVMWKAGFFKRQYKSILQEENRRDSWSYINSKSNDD
UniProt Q06851: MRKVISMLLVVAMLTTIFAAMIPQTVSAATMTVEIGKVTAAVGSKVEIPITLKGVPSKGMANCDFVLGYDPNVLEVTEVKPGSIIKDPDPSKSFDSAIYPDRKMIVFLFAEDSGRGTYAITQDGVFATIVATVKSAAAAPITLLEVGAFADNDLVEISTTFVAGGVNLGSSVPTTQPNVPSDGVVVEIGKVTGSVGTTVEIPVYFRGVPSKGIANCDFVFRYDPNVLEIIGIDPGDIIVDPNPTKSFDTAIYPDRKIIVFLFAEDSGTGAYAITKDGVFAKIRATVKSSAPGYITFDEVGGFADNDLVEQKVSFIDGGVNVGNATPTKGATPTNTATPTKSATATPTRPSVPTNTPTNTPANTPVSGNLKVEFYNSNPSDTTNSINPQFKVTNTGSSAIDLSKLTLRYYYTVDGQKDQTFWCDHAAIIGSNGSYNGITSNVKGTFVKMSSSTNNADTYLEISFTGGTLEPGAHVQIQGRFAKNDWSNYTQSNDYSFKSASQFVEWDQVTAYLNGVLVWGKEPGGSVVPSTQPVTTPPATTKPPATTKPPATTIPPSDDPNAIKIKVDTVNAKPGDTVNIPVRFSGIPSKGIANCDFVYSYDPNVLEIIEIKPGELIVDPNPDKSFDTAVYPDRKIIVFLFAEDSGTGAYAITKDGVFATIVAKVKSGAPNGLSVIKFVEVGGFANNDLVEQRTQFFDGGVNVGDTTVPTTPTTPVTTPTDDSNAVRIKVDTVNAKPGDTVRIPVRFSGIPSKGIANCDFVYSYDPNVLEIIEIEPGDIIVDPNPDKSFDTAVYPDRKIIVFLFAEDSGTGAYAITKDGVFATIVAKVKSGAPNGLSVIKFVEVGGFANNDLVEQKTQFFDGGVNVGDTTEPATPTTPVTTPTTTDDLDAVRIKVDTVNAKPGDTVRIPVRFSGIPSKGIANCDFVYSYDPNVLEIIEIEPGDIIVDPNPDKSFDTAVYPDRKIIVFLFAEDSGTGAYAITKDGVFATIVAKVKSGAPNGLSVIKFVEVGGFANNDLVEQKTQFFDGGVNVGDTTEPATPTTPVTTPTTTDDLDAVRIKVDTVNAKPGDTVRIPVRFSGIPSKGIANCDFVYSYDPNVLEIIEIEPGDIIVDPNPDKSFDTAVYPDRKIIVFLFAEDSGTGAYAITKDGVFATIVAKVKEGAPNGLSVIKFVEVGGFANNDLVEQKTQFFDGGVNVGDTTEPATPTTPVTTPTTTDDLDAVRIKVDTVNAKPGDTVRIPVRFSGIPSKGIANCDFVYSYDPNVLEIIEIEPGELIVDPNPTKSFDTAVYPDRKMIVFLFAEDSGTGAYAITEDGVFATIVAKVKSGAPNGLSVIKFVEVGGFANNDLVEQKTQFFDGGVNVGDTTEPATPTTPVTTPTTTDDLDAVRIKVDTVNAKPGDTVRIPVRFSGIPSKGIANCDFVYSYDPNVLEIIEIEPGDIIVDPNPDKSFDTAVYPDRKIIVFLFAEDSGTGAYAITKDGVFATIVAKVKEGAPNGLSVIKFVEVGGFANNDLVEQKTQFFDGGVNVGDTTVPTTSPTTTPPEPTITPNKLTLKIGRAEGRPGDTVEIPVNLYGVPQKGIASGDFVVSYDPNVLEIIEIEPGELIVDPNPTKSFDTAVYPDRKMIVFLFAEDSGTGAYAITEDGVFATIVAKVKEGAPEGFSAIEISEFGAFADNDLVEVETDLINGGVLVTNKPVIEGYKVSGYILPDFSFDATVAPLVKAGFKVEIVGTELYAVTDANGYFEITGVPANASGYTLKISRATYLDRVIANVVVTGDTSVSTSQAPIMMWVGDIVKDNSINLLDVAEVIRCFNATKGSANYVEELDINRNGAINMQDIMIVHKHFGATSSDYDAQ

With “ZEPHYRIN-CS1 (from UniProt Q06851 361-527)” the binding was “binds”.
